In one assay the target is T1, BMX (UniProt P51813).
T1 sequence: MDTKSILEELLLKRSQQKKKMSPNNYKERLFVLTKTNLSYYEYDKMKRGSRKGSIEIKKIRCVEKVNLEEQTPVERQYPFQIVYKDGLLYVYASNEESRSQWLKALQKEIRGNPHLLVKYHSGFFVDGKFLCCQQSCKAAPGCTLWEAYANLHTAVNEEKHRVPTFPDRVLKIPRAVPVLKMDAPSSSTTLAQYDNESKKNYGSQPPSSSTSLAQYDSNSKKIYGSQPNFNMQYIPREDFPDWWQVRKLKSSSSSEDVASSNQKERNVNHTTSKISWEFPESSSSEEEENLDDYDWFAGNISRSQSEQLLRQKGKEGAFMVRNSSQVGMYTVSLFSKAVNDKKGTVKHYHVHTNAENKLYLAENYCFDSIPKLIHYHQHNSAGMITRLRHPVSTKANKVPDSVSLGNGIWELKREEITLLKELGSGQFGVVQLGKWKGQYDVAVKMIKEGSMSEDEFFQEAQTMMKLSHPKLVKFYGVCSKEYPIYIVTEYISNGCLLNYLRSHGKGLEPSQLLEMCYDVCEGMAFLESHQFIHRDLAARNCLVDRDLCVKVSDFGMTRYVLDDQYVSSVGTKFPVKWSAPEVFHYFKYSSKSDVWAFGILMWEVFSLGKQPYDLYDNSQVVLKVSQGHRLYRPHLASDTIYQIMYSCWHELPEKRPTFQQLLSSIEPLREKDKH
Kind of assay: co-IP; NCM460 cells infected with vector-, BMX- or HCK-overexpressing construct; cell lysates incubated with FLAG antibody at 4 °C for 4 h, protein G-agarose beads at 4 °C overnight; beads washed with PBS with 0.1% Tween 20; western blot. A general note: A western blot detects proteins with antibodies after separation by electrophoresis.

Protein sequences, listed by entry. Tags and fused reporters are not part of them.
UniProt P08631: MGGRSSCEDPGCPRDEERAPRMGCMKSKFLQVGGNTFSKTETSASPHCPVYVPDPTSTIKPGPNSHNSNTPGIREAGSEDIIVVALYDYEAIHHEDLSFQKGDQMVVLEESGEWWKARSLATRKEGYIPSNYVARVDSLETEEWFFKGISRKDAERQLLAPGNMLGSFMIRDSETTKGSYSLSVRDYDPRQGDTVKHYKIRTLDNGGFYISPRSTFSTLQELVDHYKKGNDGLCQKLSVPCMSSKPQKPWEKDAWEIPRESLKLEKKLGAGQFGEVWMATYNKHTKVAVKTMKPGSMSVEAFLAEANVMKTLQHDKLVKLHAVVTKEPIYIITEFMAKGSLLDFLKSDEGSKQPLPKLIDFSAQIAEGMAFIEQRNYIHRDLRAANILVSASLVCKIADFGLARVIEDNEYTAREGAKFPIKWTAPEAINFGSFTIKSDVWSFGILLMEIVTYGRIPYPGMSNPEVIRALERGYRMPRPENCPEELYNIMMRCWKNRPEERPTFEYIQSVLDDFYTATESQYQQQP
UniProt P40763: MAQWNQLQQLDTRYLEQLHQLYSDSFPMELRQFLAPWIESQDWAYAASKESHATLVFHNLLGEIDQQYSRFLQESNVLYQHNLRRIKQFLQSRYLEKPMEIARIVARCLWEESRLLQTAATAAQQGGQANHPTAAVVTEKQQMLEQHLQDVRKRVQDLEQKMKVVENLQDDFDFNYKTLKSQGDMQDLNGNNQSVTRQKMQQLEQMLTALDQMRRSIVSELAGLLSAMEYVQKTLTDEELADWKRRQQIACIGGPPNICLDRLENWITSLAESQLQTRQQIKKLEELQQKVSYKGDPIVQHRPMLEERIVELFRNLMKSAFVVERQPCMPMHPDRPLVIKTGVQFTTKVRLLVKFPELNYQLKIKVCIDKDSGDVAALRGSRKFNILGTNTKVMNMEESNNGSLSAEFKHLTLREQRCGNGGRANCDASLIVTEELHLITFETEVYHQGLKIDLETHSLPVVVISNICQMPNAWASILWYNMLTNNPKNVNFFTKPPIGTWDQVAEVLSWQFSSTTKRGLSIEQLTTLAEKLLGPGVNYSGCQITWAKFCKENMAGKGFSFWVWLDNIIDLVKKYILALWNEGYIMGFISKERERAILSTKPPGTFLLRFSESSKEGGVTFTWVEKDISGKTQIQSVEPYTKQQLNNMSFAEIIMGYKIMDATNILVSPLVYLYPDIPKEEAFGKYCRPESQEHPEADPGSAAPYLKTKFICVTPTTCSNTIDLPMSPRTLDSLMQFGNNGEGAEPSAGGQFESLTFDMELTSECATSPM

Another assay concerns the target HCK (UniProt P08631). The assay is described as above.

This passage reports binding results from paper PMC8882672.

These are yes or no findings as the source states them, for the method shown. Binding seen in cells or lysates may run through a third protein. Some binding calls cover weakened binding; strength is not graded here.

With STAT3 (from UniProt P40763 1-770), the binding result in the assay with BMX and with HCK was “binds” in each case.
